Values joined by “and” are separate entries in the source; they are usually repeats but may differ in a detail not shown here. Identical values can stand only once. Further values from the same series stand in other lists.
Tested on: collagen-induced arthritis
Experiment: Collagen-induced arthritis (CIA) model in rats: body weight, paw volume, clinical scores, clinical observations
Conditions: individual animals

Row | SMILES | Animal paw volume percent change (Day 15, L paw) | Animal paw volume percent change (Day 15, R paw) | Animal paw volume percent change (Day 18, L paw) | Animal paw volume percent change (Day 18, R paw) | Animal paw volume percent change (Day 19, L paw) | Animal paw volume percent change (Day 19, R paw) | Animal paw volume percent change (Day 21, L paw) | Animal paw volume percent change (Day 21, R paw)
1 | CNC(=O)c1cc(C(=O)NC2CC2)cn(Cc2ccccc2)c1=O [GSK620, reference compound] | 8.79% and 10.58% and 19.48% and 62.36% and 29.63% | 76.92% and 7.33% and 17.36% and 60.38% and 33.71% | 109.89% and 67.15% and 53.18% and 101.90% and 72.96% | 130.40% and 6.59% and 53.96% and 79.25% and 75.28% | 83.00% and 123.81% and 90.15% and 63.67% and 100.00% and 71.48% | 82.75% and 130.40% and 6.59% and 65.66% and 77.74% and 74.16% | 84.58% and 122.34% and 90.88% and 65.17% and 92.78% and 71.48% | 72.94% and 125.27% and 17.95% and 64.15% and 78.49% and 74.16%
2 | C[C@@H]1C[C@H]2[C@@H]3CCC4=CC(=O)C=C[C@]4(C)[C@@]3(F)[C@@H](O)C[C@]2(C)[C@@]1(O)C(=O)CO [dexamethasone, reference compound] | −3.77% and −3.09% and −10.77% and −0.75% and −6.99% | −5.95% and −1.56% and −12.36% and −2.95% and −8.06% | – | −2.97% and 0.00% and −10.04% and −1.48% and −5.86% | 3.61% and −2.26% and −1.54% and −8.85% and −0.75% and −4.78% | 4.36% and −2.97% and −1.56% and −9.27% and −2.58% and −5.13% | – | 3.64% and −2.97% and 0.78% and −9.27% and −2.95% and −5.13%
